Data taken from paper PMC8102066, “Differences in interactions between transmembrane domains tune the activation of metabotropic glutamate receptors” (eLife, 2021).
Results are given in words; binding and its absence hold for the method and conditions named. Some binding calls cover weakened binding; strength is not graded here.

Sequences of proteins named here, by UniProt entry; tags and fusion partners are left off. A change or cut given only in a name is not applied to a line headed by its entry. A line that says so, or that is headed by a name, gives the form on record, which may keep a tag or linker. Residues count along the entry.
HA-SNAP-mGluR2 (P31421, residues 19-872): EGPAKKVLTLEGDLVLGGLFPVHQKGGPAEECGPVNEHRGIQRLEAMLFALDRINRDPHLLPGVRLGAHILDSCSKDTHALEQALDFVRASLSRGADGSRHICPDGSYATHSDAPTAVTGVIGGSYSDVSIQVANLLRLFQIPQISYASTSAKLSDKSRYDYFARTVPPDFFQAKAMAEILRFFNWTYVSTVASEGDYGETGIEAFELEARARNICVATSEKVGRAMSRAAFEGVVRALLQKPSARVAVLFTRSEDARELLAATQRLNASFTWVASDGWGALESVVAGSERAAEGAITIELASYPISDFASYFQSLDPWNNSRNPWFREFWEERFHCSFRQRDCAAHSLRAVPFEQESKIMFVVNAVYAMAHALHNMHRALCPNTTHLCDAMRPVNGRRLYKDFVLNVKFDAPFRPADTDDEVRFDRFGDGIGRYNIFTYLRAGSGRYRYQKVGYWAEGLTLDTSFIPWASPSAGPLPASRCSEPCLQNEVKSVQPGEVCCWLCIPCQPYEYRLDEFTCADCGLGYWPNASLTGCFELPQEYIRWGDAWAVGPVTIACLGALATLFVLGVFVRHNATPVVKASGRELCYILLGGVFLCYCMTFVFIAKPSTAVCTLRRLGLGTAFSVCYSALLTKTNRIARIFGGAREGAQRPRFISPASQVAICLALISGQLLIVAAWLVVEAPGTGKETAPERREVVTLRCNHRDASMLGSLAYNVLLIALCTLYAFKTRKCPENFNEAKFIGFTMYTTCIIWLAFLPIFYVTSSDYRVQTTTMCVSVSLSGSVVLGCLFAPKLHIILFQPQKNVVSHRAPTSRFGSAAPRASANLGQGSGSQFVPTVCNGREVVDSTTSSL
HA-SNAP-mGluR2-C121A (P31421, form named): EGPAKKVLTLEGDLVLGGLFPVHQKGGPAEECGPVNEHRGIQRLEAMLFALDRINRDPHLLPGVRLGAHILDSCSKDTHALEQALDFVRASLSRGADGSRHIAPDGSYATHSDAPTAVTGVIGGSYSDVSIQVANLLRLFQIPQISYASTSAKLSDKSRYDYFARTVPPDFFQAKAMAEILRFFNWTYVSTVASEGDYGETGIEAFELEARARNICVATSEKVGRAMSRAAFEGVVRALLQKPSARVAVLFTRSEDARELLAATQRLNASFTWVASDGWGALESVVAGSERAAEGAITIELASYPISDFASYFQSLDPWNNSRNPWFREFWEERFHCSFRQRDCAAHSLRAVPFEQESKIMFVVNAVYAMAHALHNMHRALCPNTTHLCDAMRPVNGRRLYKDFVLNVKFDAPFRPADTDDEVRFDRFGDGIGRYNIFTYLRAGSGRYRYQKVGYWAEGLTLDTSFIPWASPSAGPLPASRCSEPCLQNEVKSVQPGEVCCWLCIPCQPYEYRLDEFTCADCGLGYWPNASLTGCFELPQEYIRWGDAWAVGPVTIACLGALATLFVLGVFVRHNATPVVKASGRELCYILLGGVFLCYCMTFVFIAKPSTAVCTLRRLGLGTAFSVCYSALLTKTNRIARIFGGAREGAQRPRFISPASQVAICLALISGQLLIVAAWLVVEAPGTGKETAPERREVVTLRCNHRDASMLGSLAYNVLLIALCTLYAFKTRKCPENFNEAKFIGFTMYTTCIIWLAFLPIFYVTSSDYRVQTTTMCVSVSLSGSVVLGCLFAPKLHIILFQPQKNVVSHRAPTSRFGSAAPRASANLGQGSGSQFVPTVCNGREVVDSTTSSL
SNAP-mGluR2-C121A-3xTM4 (P31421, form named): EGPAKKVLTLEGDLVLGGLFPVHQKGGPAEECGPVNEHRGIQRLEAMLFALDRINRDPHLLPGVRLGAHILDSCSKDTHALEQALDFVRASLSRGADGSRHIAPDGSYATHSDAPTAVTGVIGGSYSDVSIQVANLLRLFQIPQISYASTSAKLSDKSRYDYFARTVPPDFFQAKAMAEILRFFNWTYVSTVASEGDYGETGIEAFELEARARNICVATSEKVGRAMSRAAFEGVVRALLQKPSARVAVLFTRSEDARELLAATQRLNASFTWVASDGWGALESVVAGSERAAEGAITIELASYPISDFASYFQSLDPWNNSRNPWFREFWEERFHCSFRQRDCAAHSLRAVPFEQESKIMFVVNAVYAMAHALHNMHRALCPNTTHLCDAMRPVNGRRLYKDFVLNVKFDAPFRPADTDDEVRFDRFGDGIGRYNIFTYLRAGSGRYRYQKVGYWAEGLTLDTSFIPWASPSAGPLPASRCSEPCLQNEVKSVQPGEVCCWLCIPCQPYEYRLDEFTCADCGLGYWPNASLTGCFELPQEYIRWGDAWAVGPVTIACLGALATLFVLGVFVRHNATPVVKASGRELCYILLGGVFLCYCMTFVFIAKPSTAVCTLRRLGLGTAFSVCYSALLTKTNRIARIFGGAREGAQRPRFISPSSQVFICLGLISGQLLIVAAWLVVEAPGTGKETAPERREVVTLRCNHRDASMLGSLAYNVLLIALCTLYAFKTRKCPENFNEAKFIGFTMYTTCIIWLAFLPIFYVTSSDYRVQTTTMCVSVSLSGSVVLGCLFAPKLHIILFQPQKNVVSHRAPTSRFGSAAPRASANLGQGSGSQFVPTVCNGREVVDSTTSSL
SNAP-mGluR2-C121A-I779A (P31421, form named): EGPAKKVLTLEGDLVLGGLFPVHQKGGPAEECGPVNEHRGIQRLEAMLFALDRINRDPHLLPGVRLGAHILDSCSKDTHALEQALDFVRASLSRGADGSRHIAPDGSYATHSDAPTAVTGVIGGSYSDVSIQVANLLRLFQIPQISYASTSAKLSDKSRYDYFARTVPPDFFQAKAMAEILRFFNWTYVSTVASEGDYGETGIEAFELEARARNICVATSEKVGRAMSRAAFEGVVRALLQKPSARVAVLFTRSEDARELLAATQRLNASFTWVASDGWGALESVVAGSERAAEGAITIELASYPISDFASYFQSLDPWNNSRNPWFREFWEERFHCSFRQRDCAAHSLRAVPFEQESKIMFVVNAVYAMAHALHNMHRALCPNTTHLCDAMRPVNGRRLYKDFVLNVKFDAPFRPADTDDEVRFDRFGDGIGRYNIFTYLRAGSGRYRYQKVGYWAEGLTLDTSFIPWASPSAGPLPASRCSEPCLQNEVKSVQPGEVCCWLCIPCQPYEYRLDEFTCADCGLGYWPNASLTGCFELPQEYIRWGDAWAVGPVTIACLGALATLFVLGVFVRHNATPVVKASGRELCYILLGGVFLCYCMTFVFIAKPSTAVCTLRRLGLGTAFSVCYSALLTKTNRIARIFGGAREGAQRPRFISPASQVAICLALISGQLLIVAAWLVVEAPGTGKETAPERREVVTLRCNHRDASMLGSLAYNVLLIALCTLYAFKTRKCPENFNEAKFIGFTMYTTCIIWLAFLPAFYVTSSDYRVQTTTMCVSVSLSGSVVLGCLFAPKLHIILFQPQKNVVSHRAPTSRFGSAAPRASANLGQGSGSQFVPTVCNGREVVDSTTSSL
CLIP-mGluR3 (P31422, residues 23-879): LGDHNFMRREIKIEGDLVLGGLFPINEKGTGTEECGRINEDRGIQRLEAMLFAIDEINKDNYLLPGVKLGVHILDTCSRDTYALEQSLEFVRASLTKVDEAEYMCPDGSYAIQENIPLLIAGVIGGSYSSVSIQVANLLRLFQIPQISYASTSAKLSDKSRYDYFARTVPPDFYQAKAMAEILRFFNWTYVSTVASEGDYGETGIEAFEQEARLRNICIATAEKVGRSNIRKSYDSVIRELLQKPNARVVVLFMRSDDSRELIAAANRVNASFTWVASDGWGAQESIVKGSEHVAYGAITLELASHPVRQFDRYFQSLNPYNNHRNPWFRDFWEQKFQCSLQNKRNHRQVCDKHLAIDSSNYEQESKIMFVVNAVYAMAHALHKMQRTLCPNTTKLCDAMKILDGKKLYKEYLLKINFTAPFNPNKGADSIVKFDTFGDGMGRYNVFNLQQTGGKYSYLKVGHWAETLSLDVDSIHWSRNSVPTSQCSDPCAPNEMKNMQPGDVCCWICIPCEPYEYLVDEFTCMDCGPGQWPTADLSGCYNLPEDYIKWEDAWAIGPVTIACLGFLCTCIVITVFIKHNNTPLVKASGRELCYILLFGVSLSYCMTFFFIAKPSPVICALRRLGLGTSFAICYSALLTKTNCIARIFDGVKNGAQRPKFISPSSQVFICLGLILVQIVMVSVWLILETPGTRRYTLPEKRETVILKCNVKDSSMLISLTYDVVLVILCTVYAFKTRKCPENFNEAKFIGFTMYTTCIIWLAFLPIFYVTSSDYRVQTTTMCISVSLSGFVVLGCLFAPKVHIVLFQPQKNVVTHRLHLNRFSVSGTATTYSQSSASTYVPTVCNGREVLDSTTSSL
HA-SNAP-mGluR3-C127A (P31422, form named): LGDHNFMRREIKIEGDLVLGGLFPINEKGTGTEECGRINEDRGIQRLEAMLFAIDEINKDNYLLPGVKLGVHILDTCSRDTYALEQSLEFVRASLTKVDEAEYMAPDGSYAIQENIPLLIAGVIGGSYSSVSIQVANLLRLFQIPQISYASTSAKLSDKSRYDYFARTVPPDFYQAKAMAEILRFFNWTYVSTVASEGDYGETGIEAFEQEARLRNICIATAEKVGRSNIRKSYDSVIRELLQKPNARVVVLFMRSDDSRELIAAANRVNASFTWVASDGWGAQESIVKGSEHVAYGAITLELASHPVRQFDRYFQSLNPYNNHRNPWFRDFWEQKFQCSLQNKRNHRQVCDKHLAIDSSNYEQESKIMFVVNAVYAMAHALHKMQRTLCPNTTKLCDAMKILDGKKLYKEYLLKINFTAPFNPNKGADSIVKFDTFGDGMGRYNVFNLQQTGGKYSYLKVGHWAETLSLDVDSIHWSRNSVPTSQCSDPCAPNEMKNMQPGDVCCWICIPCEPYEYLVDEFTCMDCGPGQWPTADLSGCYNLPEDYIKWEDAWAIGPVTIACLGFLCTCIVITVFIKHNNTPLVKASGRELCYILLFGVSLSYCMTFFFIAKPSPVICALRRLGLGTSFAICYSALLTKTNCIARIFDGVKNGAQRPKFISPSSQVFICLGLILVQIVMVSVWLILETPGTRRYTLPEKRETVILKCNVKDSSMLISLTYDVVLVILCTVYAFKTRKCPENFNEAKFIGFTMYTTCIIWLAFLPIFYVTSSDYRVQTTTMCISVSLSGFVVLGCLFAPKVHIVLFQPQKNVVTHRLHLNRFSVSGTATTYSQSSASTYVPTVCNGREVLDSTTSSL
CLIP-mGluR3-C127A-3xTM4 (P31422, form named): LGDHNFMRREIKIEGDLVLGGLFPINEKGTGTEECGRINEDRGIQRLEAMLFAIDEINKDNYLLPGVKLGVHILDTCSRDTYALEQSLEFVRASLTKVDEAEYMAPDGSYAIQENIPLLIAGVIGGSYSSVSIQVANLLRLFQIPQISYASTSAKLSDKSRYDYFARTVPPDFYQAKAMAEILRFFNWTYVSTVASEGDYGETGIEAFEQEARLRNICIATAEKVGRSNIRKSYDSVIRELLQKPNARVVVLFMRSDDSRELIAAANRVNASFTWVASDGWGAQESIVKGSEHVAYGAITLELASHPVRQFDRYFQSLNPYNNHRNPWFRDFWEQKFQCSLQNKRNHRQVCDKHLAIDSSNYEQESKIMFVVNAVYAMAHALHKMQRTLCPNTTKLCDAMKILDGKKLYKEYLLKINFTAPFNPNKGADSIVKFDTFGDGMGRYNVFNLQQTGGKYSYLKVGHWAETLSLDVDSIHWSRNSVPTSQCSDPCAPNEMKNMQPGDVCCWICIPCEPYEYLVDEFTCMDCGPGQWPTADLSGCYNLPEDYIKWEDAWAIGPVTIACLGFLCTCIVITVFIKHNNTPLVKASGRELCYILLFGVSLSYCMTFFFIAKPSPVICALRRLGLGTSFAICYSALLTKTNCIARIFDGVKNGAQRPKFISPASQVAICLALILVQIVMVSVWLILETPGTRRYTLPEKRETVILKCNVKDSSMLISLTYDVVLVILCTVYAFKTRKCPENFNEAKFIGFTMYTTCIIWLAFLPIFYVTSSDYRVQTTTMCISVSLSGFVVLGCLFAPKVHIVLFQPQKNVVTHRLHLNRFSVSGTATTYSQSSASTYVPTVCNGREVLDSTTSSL

Legend:
[1] = target: HA-SNAP-mGluR2 (rat) (UniProt P31421); assay: two-colour single-molecule pulldown (SiMPull); HA-SNAP construct (BG-LD655) and CLIP construct (BC-DY547) co-expressed in HEK 293T cells; complexes from lysate captured by anti-HA antibody; DY547 spots counted against LD655 spots, background of CLIP construct alone subtracted
[2] = target: HA-SNAP-mGluR2-C121A (rat) (UniProt P31421); assay: as above
[3] = target: HA-SNAP-mGluR3-C127A (rat) (UniProt P31422); assay: as above
[4] = target: HA-SNAP-mGluR2-C121A (rat) (UniProt P31421); assay: single-molecule pulldown (SiMPull) with photobleaching step counting; HEK 293T cells surface-labelled with BG-LD555, lysed in 1.2% IGEPAL, diluted in 0.1% IGEPAL buffer; HA-SNAP constructs captured by biotinylated anti-HA antibody on NeutrAvidin/PEG slides; TIRF; percent dimerization = two-step bleaching min-max normalised (5% background, 55% for full-length mGluR2); in some experiments saturating ligands (TASP, MNI 137, glutamate, LY34) kept from cell dissociation on
[5] = target: SNAP-mGluR2-C121A-3xTM4 (rat) (UniProt P31421); assay: as above
[6] = target: SNAP-mGluR2-C121A-I779A (rat) (UniProt P31421); assay: as above
[7] = target: SNAP-mGluR3-3xTM4 (rat) (UniProt P31422); assay: as above
[8] = target: SNAP-mGluR3-C127A-I788A (rat) (UniProt P31422); assay: as above

CLIP-mGluR2 (from UniProt P31421 19-872) (receptor)
binding [1]: binds

CLIP-mGluR2-C121A (from UniProt P31421 19-872) (receptor)
binding [2]: binds
binding [3]: binds

CLIP-mGluR2-C121A-3xTM4 (from UniProt P31421 19-872) (receptor)
binding [3]: binds

CLIP-mGluR3 (from UniProt P31422 23-879) (receptor)
binding [1]: binds

CLIP-mGluR3-C127A (from UniProt P31422 23-879) (receptor)
binding [2]: binds
binding [3]: binds

CLIP-mGluR3-C127A-3xTM4 (from UniProt P31422 23-879) (receptor)
binding [2]: binds

HA-SNAP-mGluR2-C121A (from UniProt P31421 19-872) (receptor)
binding [4]: binds

SNAP-mGluR2-C121A-3xTM4 (from UniProt P31421 19-872) (receptor)
binding [5]: binds

SNAP-mGluR2-C121A-I779A (from UniProt P31421 19-872) (receptor)
binding [6]: binds

SNAP-mGluR3-3xTM4 (from UniProt P31422 23-879) (receptor)
binding [7]: binds

SNAP-mGluR3-C127A-I788A (from UniProt P31422 23-879) (receptor)
binding [8]: binds
